According to PMC2833144:
These are yes or no findings as the source states them, for the method shown. Binding can be weak; no strength is given.

Legend:
Test in all cases: far-Western, overlay or dot blot; ligand affinity blot: purified GST fusion proteins separated by 10% Tris/Tricine SDS-PAGE, blotted to nitrocellulose; membranes incubated with non-immune animal sera; detected with a polyclonal anti-CFH antibody; only the target purified
[1] = target: GST fusion of BGA68 of B. garinii ST4 PBi (B. garinii ST4 PBi)
[2] = target: GST fusion of BGA67 of B. garinii ST4 PBi (B. garinii ST4 PBi)
[3] = target: GST fusion of BGA71 of B. garinii ST4 PBi (B. garinii ST4 PBi)
[4] = target: GST fusion of BGA66 of B. garinii ST4 PBi (B. garinii ST4 PBi)

Measured: binding

B1: bovine CFH (protein, UniProt Q28085 19-1236)
chain: EDCKEPPPRKETEILSGSWTEQTYQEGTQATYKCRPGYRTLGSIVMMCRGGKWVSLHPSRICRKKPCAHPGDTPFGSFHLAEGTQFEYGAKVVYTCDEGYQMVGEMNFRECDTNGWTNDIPICEVVKCLPVTEPENGKIFSDALEPDQEYTYGQVVQFECNSGYMLDGPKQIHCSAGGVWSAETPKCVEIFCKTPVILNGQAVLPKATYKANERVQYRCAAGFEYGQRGDTICTKSGWTPAPTCIEITCDPPRIPNGVYRPELSKYRGQDKITYECKKGFFPEIRGTDATCTRDGWVPVPRCAWKPCSYPVIKHGRLYYSYRGYFPARVNQQFVYSCDHHFVPPSQRSWDHLTCTAEGWSPEEPCLRQCIFNYLENGHTPYREEKYLQGETVRVRCYEGYSLQNDQNTMTCTESGWSPPPRCIRVKTCSKSNIRIENGFLSESTFTYPLNKQTEYKCKPGYVTADGKTSGLITCLKNGWSAQPVCIKSCDRPVFEKARVKSDGTWFRLNDRLDYECVDGYENRDGRTTGSIVCGQDGWSDKAACYERECSIPEMDPYLNAYPRKETYKVGDVLKFSCSQGRIMVGADSVQCYHFGWSPKLPTCKVKKVKSCALPPELPNGKRKEIHKEEYAHNEVVEYACNPRFLMKGSHKIQCVDGEWTALPVCIEEERTCGNIPDLDHGDVKPSVPPYHHGDSVEFSCREAFTMIGPRFITCISGEWTQPPQCIATDELRKCKGSTLFPPEGRQAHKIEYDHNTNKSYQCRGKSEHKHSICINGEWDPKVDCNEEAKIQLCPPPPQVPNACDMTTTVNYQDGEKISILCKENYLIQDAEEIVCKDGRWQSIPRCIEKIGCSQPPQIDHGTISSSSSAEERREIHEQRLYAHGTKLSYTCEEGFEISENNVIICHMGKWSSPPQCVGLPCGLPPYVQNGVVSHKKDRYQYGEEVTYDCDEGFGTDGPASIRCLGGEWSRPQDCISTNCVNLPTFEDAVLTDREKDFYRSGEQVAFKCLSYYQLDGSNTIQCIKSKWIGRPACRDVSCGNPPQVENAIIHNQKSKYQSEERARYECIGNYDLFGEMEVVCLNGTWTEPPQCKDSQGKCGPPPPIDNGDITSLLQSVYPPGMIVEYRCQAYYELRGNKNVVCRNGEWSQLPKCLEACVISEETMRKHHIQLRWKHDKKIYSKTEDTIEFMCQHGYRQLTPKHTFRATCREGKVVYPRCG
binds: [1] | [2] | [3] | [4]
